PubChem BioAssay AID743121, NCATS – 2013

Test: 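Genes whose silencing strengthens cell killing by camptothecin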 (primary screen)
Cell system: MDA-MB-231 cells, a human breast cancer line
Knock-down reagent: single siRNA against human genes, 20 nM siRNA (0.8 pmol per well)
Duration: 120 h (drug added 48 h after transfection, read 72 h later)
Challenge: camptothecin 20 nM (about EC30) for 72 h; vehicle 0.1% DMSO in parallel plates
Detection: 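Cell viability by ATP luminescence (CellTiter-Glo) as % of non-targeting siRNA wells, and the log2 ratio of viability without drug over viability with camptothecin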
Reading the numbers: log2 vehicle/camptothecin viability: higher = stronger sensitisation to camptothecin; viability with camptothecin: higher = more viable cells
Units: viability with camptothecin in % of control
Active means: 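Active genes have an RSA gene-level p-value below 0.001, computed from the ratios of their separate siRNAs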
Shown is a random part of about 26,000 reagents. 167 of all reagents (0.63%) count as active. 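Calls are per gene from RSA p-values that are not deposited; an individual active-marked siRNA can sensitise only weakly.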 Further read-outs or replicates are left out here.

For DGCR6 (GeneID 8214) [SID164396506] the deposit lists log2 vehicle/camptothecin viability 0; viability with camptothecin 46.4; inactive. DGCR6 (GeneID 8214) [SID164396507] scored log2 vehicle/camptothecin viability -0.176; viability with camptothecin 69.7; inactive. With knock-down of DGCR6 (GeneID 8214) [SID164396508] the results were log2 vehicle/camptothecin viability 0.0937; viability with camptothecin 29.1; inactive. DGCR6 (GeneID 8214) [SID164548385] gave log2 vehicle/camptothecin viability -0.496; viability with camptothecin 76.7; inactive. With knock-down of ING2 (GeneID 3622) [SID164371596] the results were log2 vehicle/camptothecin viability -0.137; viability with camptothecin 100; inactive. Depletion of ING2 (GeneID 3622) [SID164371597] came out at: log2 vehicle/camptothecin viability -0.394; viability with camptothecin 105; inactive.

With knock-down of ING2 (GeneID 3622) [SID164371599] the results were log2 vehicle/camptothecin viability -0.162; viability with camptothecin 41.1; inactive. For ING2 (GeneID 3622) [SID164371600], the entry reads log2 vehicle/camptothecin viability 0.0502; viability with camptothecin 65.9; inactive. Knock-down of ANKMY1 (GeneID 51281) [SID164473023] resulted in: log2 vehicle/camptothecin viability 0.713; viability with camptothecin 41; inactive. ANKMY1 (GeneID 51281) [SID164473026] showed log2 vehicle/camptothecin viability 0.0573; viability with camptothecin 73.8; inactive. ANKMY1 (GeneID 51281) [SID164473027] scored log2 vehicle/camptothecin viability -0.224; viability with camptothecin 93.1; inactive. ANKMY1 (GeneID 51281) [SID164473028] gave log2 vehicle/camptothecin viability -0.5; viability with camptothecin 80.4; inactive.

Depletion of IMPDH1 (GeneID 3614) [SID164371543] came out at: log2 vehicle/camptothecin viability -0.0789; viability with camptothecin 109; inactive. For IMPDH1 (GeneID 3614) [SID164371544], the entry reads log2 vehicle/camptothecin viability 0.0686; viability with camptothecin 58.2; inactive. With knock-down of IMPDH1 (GeneID 3614) [SID164371545] the results were log2 vehicle/camptothecin viability -0.237; viability with camptothecin 110; inactive. IMPDH1 (GeneID 3614) [SID164371550] gave log2 vehicle/camptothecin viability -0.334; viability with camptothecin 42.2; inactive. After knock-down of RPS6KA5 (GeneID 9252) [SID164402665], the record shows log2 vehicle/camptothecin viability -0.286; viability with camptothecin 69.6; inactive. With knock-down of RPS6KA5 (GeneID 9252) [SID164402670] the results were log2 vehicle/camptothecin viability 0.0401; viability with camptothecin 86; inactive.

For RPS6KA5 (GeneID 9252) [SID164402673], the entry reads log2 vehicle/camptothecin viability -0.185; viability with camptothecin 77.5; inactive. With knock-down of RPS6KA5 (GeneID 9252) [SID164402674], the record shows log2 vehicle/camptothecin viability -0.493; viability with camptothecin 37.8; inactive. OMP (GeneID 4975) [SID164378870] scored log2 vehicle/camptothecin viability 1.18; viability with camptothecin 34.6; inactive. With knock-down of OMP (GeneID 4975) [SID164378872] the results were log2 vehicle/camptothecin viability -0.169; viability with camptothecin 4.51; inactive. After knock-down of OMP (GeneID 4975) [SID164378873], the record shows log2 vehicle/camptothecin viability -0.29; viability with camptothecin 71; inactive. OMP (GeneID 4975) [SID164378874] showed log2 vehicle/camptothecin viability -0.0253; viability with camptothecin 78.9; inactive.

Against RNPEPL1 (GeneID 57140) [SID164492913] the deposit lists log2 vehicle/camptothecin viability -0.17; viability with camptothecin 94.1; inactive. With knock-down of RNPEPL1 (GeneID 57140) [SID164492914] the results were log2 vehicle/camptothecin viability -0.182; viability with camptothecin 80.5; inactive. Knock-down of RNPEPL1 (GeneID 57140) [SID164492916] resulted in: log2 vehicle/camptothecin viability -0.533; viability with camptothecin 79; inactive. RNPEPL1 (GeneID 57140) [SID164492917] gave log2 vehicle/camptothecin viability -0.0513; viability with camptothecin 62.9; inactive. EPRS1 (GeneID 2058) [SID164363569] gave log2 vehicle/camptothecin viability -0.399; viability with camptothecin 84.9; inactive. For EPRS1 (GeneID 2058) [SID164363570], the entry reads log2 vehicle/camptothecin viability -0.444; viability with camptothecin 79.2; inactive.

For EPRS1 (GeneID 2058) [SID164363572], the entry reads log2 vehicle/camptothecin viability -0.212; viability with camptothecin 41.4; inactive. SRF (GeneID 6722) [SID164389722] showed log2 vehicle/camptothecin viability -0.264; viability with camptothecin 71.9; inactive. Against SRF (GeneID 6722) [SID164389724], the values are log2 vehicle/camptothecin viability 0; viability with camptothecin 57.8; inactive. Depletion of SRF (GeneID 6722) [SID164389726] gave: log2 vehicle/camptothecin viability -0.224; viability with camptothecin 54.7; inactive. SLC25A32 (GeneID 81034) [SID164537423] gave log2 vehicle/camptothecin viability -0.00279; viability with camptothecin 106; inactive. SLC25A32 (GeneID 81034) [SID164537424] showed log2 vehicle/camptothecin viability 0.603; viability with camptothecin 54.4; inactive.

For SLC25A32 (GeneID 81034) [SID164537425], the entry reads log2 vehicle/camptothecin viability -0.0835; viability with camptothecin 81.4; inactive. Against SLC25A32 (GeneID 81034) [SID164537426], the entry reads log2 vehicle/camptothecin viability -0.0432; viability with camptothecin 60.4; inactive. Knock-down of RSPRY1 (GeneID 89970) [SID164549691] came out at: log2 vehicle/camptothecin viability -0.0917; viability with camptothecin 112; inactive. After knock-down of RSPRY1 (GeneID 89970) [SID164549692] the results were log2 vehicle/camptothecin viability -0.077; viability with camptothecin 60.6; inactive. Against RSPRY1 (GeneID 89970) [SID164549695], the entry reads log2 vehicle/camptothecin viability 0.0353; viability with camptothecin 97.5; inactive. Depletion of IL17RB (GeneID 55540) [SID164485097] gave: log2 vehicle/camptothecin viability 0.384; viability with camptothecin 58.3; inactive.

IL17RB (GeneID 55540) [SID164485098] gave log2 vehicle/camptothecin viability -0.337; viability with camptothecin 26.4; inactive. Silencing of IL17RB (GeneID 55540) [SID164485101] resulted in: log2 vehicle/camptothecin viability -0.262; viability with camptothecin 83.5; inactive. Depletion of IL17RB (GeneID 55540) [SID164485102] resulted in: log2 vehicle/camptothecin viability -0.393; viability with camptothecin 61.6; inactive.
